From PubChem BioAssay AID1688 (National Center for Advancing Translational Sciences (NCATS), 2009)
The whole screen tested about 220,000 compounds, of which about 2,400 (1.1%) were called active. This list was built around the results that the source calls inconclusive (neither active nor inactive); the mix of calls is not that of the screen. The call rests on the fitted dose curve; in most records, active means well fitted inhibition curve with a large enough effect; inconclusive means small, poorly fitted or top-dose-only effect, or effect the other way; inactive means no such curve, though single readings can be large or run the other way. Potencies of inconclusive entries are doubtful fits and often do not repeat.

test: qHTS Multiplex Assay to Identify Dual Action Probes in a Cell Model of Huntington: Aggregate Formation (GFP); settings: PC12 HttQ103-GFP aggregates, Acumen cytometry, 40 h; activity change, negative = inhibition: at 46.1 µM (top of the series) unless noted; further: nearly all actives have a fitted effect of over 60% in size
Summary of the method: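 PC12/HTTQ103-GFP, ecdysone-inducible; teb 100 nM; cpd qHTS titration; GFP aggregates read on laser cytometer, Ex 488/Em 500-530 nm.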
On the % scale 0 is the no-effect control and ±100 the full control effect; potency means the concentration at half of the fitted maximal effect.

Compound	Potency	activity change, negative = inhibition
COCCCNc1c2c3c(cccc3[nH]c1=O)C(=O)c1ccccc1-2	active: 10 µM	
Cc1n[nH]c(C)c1S(=O)(=O)N(CC(=O)Nc1ccc2c(c1)OCCO2)c1ccc(C(C)C)cc1	inconclusive: 31.6 µM [inhibitor, single point]	
Cc1cc(C)n(-c2ccc(C(=O)Nc3cccc(S(=O)(=O)N(C)C)c3)cc2)n1	inconclusive: 7.08 µM [inhibitor, partial curve]	
Cc1ccc(S(=O)(=O)NCc2ccc(C(=O)N3CCc4ccccc4C3)cc2)cc1	inconclusive: 28.2 µM [inhibitor, single point]	
N#CC1=C(N)OC2=C(C(=O)CCC2)C1c1ccccc1 (centres undefined)	inactive	
CCN(CC)S(=O)(=O)c1ccc(N2CCCCC2)c(NC(=O)/C(C#N)=C/c2ccc(OC)cc2)c1	inactive	
COc1cccc(NC(=O)Nc2nccc(C)n2)c1	inactive	
CN(C)S(=O)(=O)N(Cc1ccc(Br)cc1)c1ccccc1	inconclusive: 35.5 µM [inhibitor, single point]	
CC1CCc2c(sc(NC(=O)Cn3nc(C(F)(F)F)c4c3CCCCC4)c2C#N)C1 (centres undefined)	inactive	
CCCSC1=C(C#N)C(c2ccc(OC)cc2)C2=C(CC(C)(C)CC2=O)N1 (centres undefined)	inconclusive: 25.1 µM [inhibitor, single point]	
Cc1ccc(S(=O)(=O)NNC(=O)C(=O)NNc2ccccn2)cc1	inconclusive: 35.5 µM [inhibitor, single point]	
CC(C)(C)[C@H]1C=C(C(=O)NC2CC2)O[C@@H](OCCCCO)C1		inactive: -5.64% [at 9.22 µM]
Cc1nnc(N/N=C/c2cc([N+](=O)[O-])c(N3CCC(C)CC3)cc2N2CCC(C)CC2)n1N	inconclusive: 15.8 µM [inhibitor, single point]	
CC1(C)O[C@H]2C[C@@H]3[C@H]4CCC5=CC(=O)C=C[C@]5(C)[C@@]4(F)[C@@H](O)C[C@]3(C)[C@]2(C(=O)CO)O1	inactive	
CCc1nnc(NC(=O)CCNC(=O)c2ccccc2Cl)s1	inactive	
CCOC(=O)/C(C#N)=C1/SC(CC)C(=O)N1c1ccc(Br)cc1 (centres undefined)	inconclusive: 35.5 µM [activator, single point]	
Cc1nn(Cc2ccc(Cl)cc2Cl)c(C)c1NC(=O)CCl	active: 3.55 µM	
O=C(COc1ccc(Cl)cc1Cl)NC(=O)N1CCCCC1	inconclusive: 3.55 µM [inhibitor, partial curve]	
CCN(CC)S(=O)(=O)c1ccc(C(=O)Nc2cc(C)cc(C)c2)cc1	inconclusive: 22.4 µM [inhibitor, single point]	
Cc1ccc(NC(=O)CCNS(=O)(=O)c2ccc3c(c2)oc(=O)n3C)cc1C	inconclusive: 0.794 µM [activator, full curve, poor fit]	
CCOc1ccc(C(=O)NCc2cccnc2)cc1[N+](=O)[O-]	inactive	
O=[N+]([O-])c1cccnc1N1CCCCC1	inactive	
CCOC(=O)/C(=N\Nc1ccc(Cl)cc1)Sc1nnc(-c2ccc(OC)cc2)n1C	inconclusive: 31.6 µM [activator, single point]	

15 structures already listed, ordered by molecular weight, rising.
Compound	Potency	activity change, negative = inhibition
COc1cccc(NC(=O)Nc2nccc(C)n2)c1	inactive	
N#CC1=C(N)OC2=C(C(=O)CCC2)C1c1ccccc1 (centres undefined)	inactive	
O=C(COc1ccc(Cl)cc1Cl)NC(=O)N1CCCCC1	inconclusive: 3.55 µM [inhibitor, partial curve]	
CCc1nnc(NC(=O)CCNC(=O)c2ccccc2Cl)s1	inactive	
Cc1nn(Cc2ccc(Cl)cc2Cl)c(C)c1NC(=O)CCl	active: 3.55 µM	
Cc1ccc(S(=O)(=O)NNC(=O)C(=O)NNc2ccccn2)cc1	inconclusive: 35.5 µM [inhibitor, single point]	
CCN(CC)S(=O)(=O)c1ccc(C(=O)Nc2cc(C)cc(C)c2)cc1	inconclusive: 22.4 µM [inhibitor, single point]	
CN(C)S(=O)(=O)N(Cc1ccc(Br)cc1)c1ccccc1	inconclusive: 35.5 µM [inhibitor, single point]	
CCCSC1=C(C#N)C(c2ccc(OC)cc2)C2=C(CC(C)(C)CC2=O)N1 (centres undefined)	inconclusive: 25.1 µM [inhibitor, single point]	
Cc1cc(C)n(-c2ccc(C(=O)Nc3cccc(S(=O)(=O)N(C)C)c3)cc2)n1	inconclusive: 7.08 µM [inhibitor, partial curve]	
Cc1ccc(NC(=O)CCNS(=O)(=O)c2ccc3c(c2)oc(=O)n3C)cc1C	inconclusive: 0.794 µM [activator, full curve, poor fit]	
Cc1ccc(S(=O)(=O)NCc2ccc(C(=O)N3CCc4ccccc4C3)cc2)cc1	inconclusive: 28.2 µM [inhibitor, single point]	
CC1(C)O[C@H]2C[C@@H]3[C@H]4CCC5=CC(=O)C=C[C@]5(C)[C@@]4(F)[C@@H](O)C[C@]3(C)[C@]2(C(=O)CO)O1	inactive	
CC1CCc2c(sc(NC(=O)Cn3nc(C(F)(F)F)c4c3CCCCC4)c2C#N)C1 (centres undefined)	inactive	
Cc1nnc(N/N=C/c2cc([N+](=O)[O-])c(N3CCC(C)CC3)cc2N2CCC(C)CC2)n1N	inconclusive: 15.8 µM [inhibitor, single point]	

Going on with the list.

Compound	Potency	activity change, negative = inhibition
CC(C)c1nnc(NC(=O)c2c(O)c3cccc4c3n(c2=O)CCC4)s1	inconclusive: 7.08 µM [inhibitor, full curve, poor fit]	
OCCN(Cc1ccccc1)Cc1ccc(F)c(F)c1	inconclusive: 1.26 µM [activator, partial curve]	
COC(=O)c1ccc(NC(=O)CCN2CCN(Cc3ccccc3)CC2)cc1	inactive	
CC(C)(C)C(=O)Nc1sc2c(c1C(=O)Nc1ccccn1)CCCC2		inactive: -13.6% [at 9.22 µM]
N#C/C(=C\c1cn(Cc2ccc(C#N)cc2)c2ccccc12)C(=O)NCc1cccs1	inconclusive: 5.62 µM [activator, single point]	
Cc1cccc(NC(=O)CN2C(=O)NC(C)(c3ccc4c(c3)OCO4)C2=O)c1 (centres undefined)	inconclusive: 14.1 µM [activator, partial curve]	
O=C(C[n+]1cc(-c2ccccc2)n2c1CCC2)Nc1nc(-c2ccccc2)cs1	inconclusive: 35.5 µM [inhibitor, single point]	
O=C(Nc1ccccc1)OCC1CCCN2CCCCC12 (centres undefined)	inconclusive: 10 µM [activator, partial curve]	
O=C(CCc1ccccc1)Nc1ncc([N+](=O)[O-])s1	inconclusive: 11.2 µM [inhibitor, partial curve, poor fit]	
COc1ccccc1NC(=S)NC(=O)/C=C/c1ccco1	inconclusive: 35.5 µM [activator, single point]	
CCCCN(CCCC)S(=O)(=O)c1ccc(C(=O)Nc2nnc(CSC)o2)cc1	inconclusive: 15.8 µM [inhibitor, partial curve]	
Cc1cccc(NC(=S)NCC(C)CSc2ccc(Cl)cc2)c1 (centres undefined)	inconclusive: 35.5 µM [inhibitor, single point]	
N#CCSc1nnc(C2CCCCC2)n1-c1ccccc1	inactive	
COc1ccc(-c2noc(CSc3nc(-c4ccccc4)cc(=O)[nH]3)n2)cc1	inconclusive: 15.8 µM [inhibitor, single point]	
O=C(Nc1cccc(S(=O)(=O)N2CCCCC2)c1)c1ccc2c(=O)n3c(nc2c1)CCCCC3	inactive	
S=c1[nH]cc(Cc2ccccc2)s1	inactive	
C[n+]1c2n(c3ccccc31)N=C(c1ccc(Cl)cc1)CS2	inconclusive: 20 µM [inhibitor, single point]	
CCN(CC)S(=O)(=O)c1ccc(F)c(C(=O)NCCCN2CCOCC2)c1	inactive	
COc1ccc(NC(=S)N(Cc2cccnc2)Cc2ccco2)cc1	inconclusive: 15.8 µM [inhibitor, single point]	
COc1cccc(NC2=C(Cl)C(=O)OC2OC(=O)c2ccco2)c1 (centres undefined)	inconclusive: 11.2 µM [inhibitor, partial curve]	
CCN(CC)S(=O)(=O)c1ccc(NC(=O)CSc2nnc(-c3ccc(F)cc3)o2)cc1	inactive	
O=S(=O)(NCCC(c1ccc(F)cc1)c1ccco1)c1ccccc1 (centres undefined)	inconclusive: 35.5 µM [inhibitor, single point]	
CCOC(=O)N1CCN(C2=CC(=O)OC23CCCCC3)CC1	inactive	

Compound	Potency	activity change, negative = inhibition
COc1ccc(-c2c(C#N)c(SCC(=O)c3cc4ccccc4oc3=O)nc(C)c2C(=O)Nc2ccccc2)cc1	inconclusive: 35.5 µM [inhibitor, single point]	
CC1=NOC(=O)/C1=C/c1ccc(-c2ccc(Cl)cc2)o1	inconclusive: 11.2 µM [inhibitor, partial curve]	
CC1CCCC(C)N1C(=O)c1ccccc1Nc1ccc(SC(F)F)cc1 (centres undefined)	inconclusive: 15.8 µM [inhibitor, single point]	
CCOC(=O)c1ccc(CSc2nnc(N)s2)cc1	inconclusive: 5.62 µM [inhibitor, single point]	
CCCCSc1nc(O)c(C2OC(=O)c3c2ccc(OC)c3OC)c(=O)n1C (centres undefined)	inconclusive: 12.6 µM [activator, single point]	
CC1CN(C(=O)/C=C/c2ccc([N+](=O)[O-])s2)CC(C)O1 (centres undefined)	inconclusive: 35.5 µM [inhibitor, single point]	
Cc1c(C(=O)N/N=C/c2ccc(O)c(Br)c2)sc(N)c1C#N	inconclusive: 35.5 µM [activator, single point]	
CCn1c(SCC(=O)Nc2ccc(C(=O)OC)cc2)nnc1-c1cccs1	inactive	
COc1ccc2c(c1)c1nc3n(c(=O)c1n2CC(=O)Nc1cc(C)[nH]n1)CCS3	inconclusive: 5.62 µM [activator, single point]	
CCN(CC)C(=O)c1ccc2c(=O)n(CCOC)c(=S)[nH]c2c1	inactive	
COc1cc(/C=C2\C(=O)N(CCC#N)N=C2C)ccc1OCC(=O)Nc1ccccc1	inactive	
N/C(=N\OC(=O)COc1ccc2ccccc2c1)c1ccccn1	inconclusive: 22.4 µM [inhibitor, single point]	
C=CCNc1nc2c(c(=O)n(C)c(=O)n2C)n1Cc1ccc(F)cc1	inconclusive: 0.562 µM [inhibitor, full curve, poor fit]	
COc1ccc(CCNC(=O)CCSc2nc(-c3ccco3)cc(C(F)(F)F)n2)cc1OC	inconclusive: 31.6 µM [inhibitor, single point]	
CC(C)CCCC(C)NS(=O)(=O)Cc1ccccc1 (centres undefined)	inconclusive: 31.6 µM [inhibitor, single point]	
CC(C)C(c1nnnn1CC1CCCO1)N1CCN(Cc2ccc3c(c2)OCO3)CC1 (centres undefined)	inactive	
c1ccc(-n2nnnc2NC2CCCCC2)cc1	inconclusive: 8.91 µM [inhibitor, partial curve]	
COc1cc(C(=O)O)ccc1O	inconclusive: 3.98 µM [activator, single point]	
Cc1ccc(NC(=O)CSc2nc(C)c(Cc3ccccc3)c(=O)[nH]2)cc1	inconclusive: 35.5 µM [inhibitor, single point]	
O=C(Nc1cccnc1Cl)c1ccc2c(Cl)c3c(nc2c1)CCC3	inconclusive: 12.6 µM [inhibitor, single point]	
CCCC(=O)c1ccc(N2CCN(C(=O)c3ccc(Br)cc3)CC2)c(F)c1	inconclusive: 12.6 µM [inhibitor, single point]	
Nc1nnnn1/N=C/c1ccc(N2CCCCC2)c([N+](=O)[O-])c1	inactive	
N#Cc1cnn(-c2nc3sc4c(c3c(=O)[nH]2)CCCC4)c1N	inconclusive: 4.47 µM [inhibitor, full curve, poor fit]	
